In US12233115B2 (Extend Biosciences, Inc., priority 2022, dated 2025):

Assay: general procedure: Fmoc solid-phase peptide synthesis; Ramage resin (tricyclic amide linker)
Settings: conjugation step, UPLC

Substance: H-Ser-Val-Ser-Glu-Ile-Gln-Leu-Met-His-Asn-Leu-Gly-Lys-His-Leu-Asn-Ser-Met-Glu-Arg-Val-Glu-Trp-Leu-Arg-Lys-Lys-Leu-Gln-Asp-Val-His-Asn-Phe-Cys(succinimido-propionylamino-PEG36-propionyl-aminopropyl-25-hydroxy-Vitamin D)-NH2
- final HPLC purity (acetate salt): 90.8%
- final HPLC purity (carbonate salt): 80.05%
